Here are results for 35 molecules from patent US20040018558A1.

Experiment [1] addresses T1, human thrombin receptor (PAR1) (human) (UniProt P25116).
T1 sequence (looked up): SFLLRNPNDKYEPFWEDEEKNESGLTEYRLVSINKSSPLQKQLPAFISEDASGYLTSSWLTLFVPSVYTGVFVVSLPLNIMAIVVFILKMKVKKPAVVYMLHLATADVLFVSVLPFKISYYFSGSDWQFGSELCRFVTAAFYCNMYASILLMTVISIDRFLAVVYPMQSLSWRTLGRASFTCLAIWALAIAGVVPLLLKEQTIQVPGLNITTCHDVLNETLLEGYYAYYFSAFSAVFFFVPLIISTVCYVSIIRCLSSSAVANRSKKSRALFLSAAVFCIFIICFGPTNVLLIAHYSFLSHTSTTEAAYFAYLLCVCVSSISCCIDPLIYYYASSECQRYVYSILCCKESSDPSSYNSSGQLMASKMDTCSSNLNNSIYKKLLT
Briefly: LacI display panning of the G12 library, CHO membranes with PAR1.

The target of experiment [2] is T1, human thrombin receptor (PAR1) (human). The experiment in a line: G11 library panning, CHO expressed PAR1.
The target is the same in experiment [3]. Briefly: LacI display panning, CHO membranes with PAR1.
Experiment [4] has the same target. The experiment in a line: G11 library panning, recombinant reconstituted PAR1.
The target is the same in experiment [5]. The experiment in a line: LacI display panning, purified PAR1 in lipid vesicles.
The target is the same in experiment [6]. Briefly: LacI display panning of the Gt library, CHO membranes with PAR1.
The target is the same in experiment [7]. The experiment in a line: ELISA, purified MBP clone on Sf9 membranes with PAR1 or M1 receptor.
The target is the same in experiment [8]. Briefly: LacI display panning of the G13 library, CHO membranes with PAR1.

No constants are given. Whether binding was seen depends on the method and setting. Some results given as binding are weak or reduced against the parent protein; the word gives no strength. For some assays here: Where a sequence is shown, tags or fusion partners need not be part of it.

For LQETMKDQSLQ (peptide, not shown: small tags and cut ends), in experiment [1], the binding entry is given as “binds”.
In the case of QRDTLQMNHNEYNLV (peptide, not shown: small tags and cut ends) [Clone C4-16 …], the binding result in experiment [2] and in experiment [3] was “binds” in each case.
Turning to SRKLQQSLIEYNLL (peptide, not shown: small tags and cut ends) [Clone R3-37 …], the binding result in experiment [2], in experiment [4] and in experiment [5] was “binds” throughout.
As to RRGNGKDCRHF (peptide, not shown: small tags and cut ends), the binding entry in experiment [6] is listed as “binds”.
Take NFRNPQLNLNAYNLV (peptide, not shown: small tags and cut ends) [Clone C7-3 …]: the binding result in experiment [2] and in experiment [3] was “binds” throughout.
With IREFLTDCGLF (peptide, not shown: small tags and cut ends), the binding entry in experiment [6] is on record as “binds”.
As to ICERLNDCGLC (peptide, not shown: small tags and cut ends), the binding entry in experiment [6] is on record as “binds”.
As to PQVNLKSIMRQ (peptide, not shown: small tags and cut ends), the binding entry in experiment [1] is listed as “binds”.
As for IRLDLKDVSLF (peptide, not shown: small tags and cut ends), the binding result in experiment [6] was “binds”.
Turning to VRPSLQLNRNEYYLV (peptide, not shown: large carriers) [MBP clone PAR-13], in experiment [7], the binding result is listed as “binds”.
LQDNRNQLLF (peptide, not shown: small tags and cut ends): the binding entry in experiment [8] is on record as “binds”.
On the same count and under the same terms, the entry for LQANRKLGMLQ (peptide, not shown: small tags and cut ends) is “binds”.
As for LSTNLHLNLKEYNLV (peptide, not shown: small tags and cut ends) [Clone C7-13 …], the binding entry in experiment [2] and in experiment [3] was “binds” in each case.
In the case of LQENLKEMMLQ (peptide, not shown: small tags and cut ends), in experiment [1], the binding result was “binds”.
LKEHLMERMLQ (peptide, not shown: small tags and cut ends): the binding result in experiment [1] is recorded as “binds”.
On to LSRSLQQKLKEYSLV (peptide, not shown: small tags and cut ends) [Clone C7-14 …], for which the binding entry in experiment [2] and in experiment [3] was “binds” in each case.
As to LQDKINHLMLQ (peptide, not shown: small tags and cut ends), in experiment [8], the binding result is “binds”.
On to FWGNLQDSGLF (peptide, not shown: small tags and cut ends), for which, in experiment [6], the binding result was “binds”.
Take LLGMLEPLMEQ (peptide, not shown: small tags and cut ends): the binding entry in experiment [1] is “binds”.
As to PRQLLQLKRGEYILV (peptide, not shown: small tags and cut ends) [Clone C4-5 …], the binding result in experiment [2] and in experiment [3] was “binds” each time.
Turning to LPQMQRLNVGEYNLV (peptide, not shown: small tags and cut ends) [Clone C7-10 …], the binding result in experiment [2] and in experiment [3] was “binds” each time.
Consider EVRRMKLKLKEDNLV (peptide, not shown: small tags and cut ends) [Clone R2-18 …], for which the binding result in experiment [2], in experiment [4] and in experiment [5] was “binds” in each case.
Regarding LQDNLRHLMLQ (peptide, not shown: small tags and cut ends), in experiment [8], the binding result is recorded as “binds”.
Same read-out and setting: the entry for MRAKLNNLMLE (peptide, not shown: small tags and cut ends) is “binds”.
Turning to FFWVCSLKLKAYNLV (peptide, not shown: small tags and cut ends) [Clone C5-12 …], the binding entry in experiment [2] and in experiment [3] was “binds” each time.
In the case of WQHKLSEVMLQ (peptide, not shown: small tags and cut ends), in experiment [1], the binding result is recorded as “binds”.
As to PRDNTKVRGLF (peptide, not shown: small tags and cut ends), the binding result in experiment [6] is “binds”.
For VRPSLQLNRNEYYLV (peptide, not shown: small tags and cut ends) [Clone C4-19 …], the binding result in experiment [2] and in experiment [3] was “binds” in each case.
Take SRHTLRLNGKELNLV (peptide, not shown: small tags and cut ends) [Clone C5-10 …]: the binding result in experiment [2] and in experiment [3] was “binds” throughout.
Take LPQMQRLNVGEYNLV (peptide, not shown: large carriers) [MBP clone PAR-34]: in experiment [7], the binding result is “binds”.
With LQDNLRHLIQ (peptide, not shown: small tags and cut ends), in experiment [8], the binding entry is “binds”.
Take RVQHQLDLLEYNLG (peptide, not shown: small tags and cut ends) [Clone R2-20 …]: the binding result in experiment [2], in experiment [4] and in experiment [5] was “binds” in each case.
In the case of LQEDLKGMTLQ (peptide, not shown: small tags and cut ends), the binding result in experiment [1] is “binds”.
Turning to LEENLKYRMLD (peptide, not shown: small tags and cut ends), the binding entry in experiment [1] was “binds”.
In the case of LIVKVKQLIWQ (peptide, not shown: small tags and cut ends), the binding result in experiment [8] was “binds”.
